Data as given in PubChem BioAssay AID652259 (Drosophila RNAi Screening Center, 2013).

- Assay: 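Genome-wide hunt for genes that control Wingless pathway activity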 (primary screen)
- Cell system: Drosophila clone 8 imaginal disc epithelial cells
- Reagent: long dsRNA against Drosophila genes
- Conditions: pathway stimulated by co-transfected Wingless expression plasmid
- Detection: 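Firefly luciferase from a tcf-site Wingless reporter, measured alongside co-transfected Renilla luciferase that tracks transfection; pathway stimulated by a Wingless plasmid; the firefly-to-Renilla ratio is not deposited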
- Direction: firefly reporter light: higher = more Wg reporter light, before normalisation; Renilla control light: higher = more transfected or surviving cells
- Call rule: 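Strong candidates differ from their plate mean by at least two out of four per-plate statistical tests; weak candidates meet just one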
- Meaning of the calls: active = candidate regulator (raises or lowers reporter); inactive = not a candidate
In all, the deposit lists about 22,000 reagents; shown is a random part of those that have a named target and a result. In the full data, 233 (1.1%) are marked active. 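Light values are raw, unnormalised plate reads; the ratio scores behind the reporter calls were not deposited.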 A number with no mark means an inactive call. A plus sign joins genes that one reagent is predicted to hit. The record does not give: the amount of reagent, the time to read-out, the dose of the treatment.

no.	target	DRSC id	reporter change call, replicate 1	firefly reporter light, replicate 1	firefly reporter light, replicate 2	Renilla control light, replicate 1	Renilla control light, replicate 2
1	unk (GeneID 42738)	DRSC17093		5105	11805	2042	3130
2	GstD5 (GeneID 48338)	DRSC16686		12747		3697	
3	Ciz1 (GeneID 39161)	DRSC09675		3953		1376	
4	Ggamma1 (GeneID 35881)	DRSC07435		9431		3033	
5	CG8414 (GeneID 36774)	DRSC07168		5302		1960	
6	CG1764 (GeneID 32281)	DRSC19779		2810	7078	1251	3128
7	hiw (GeneID 32429)	DRSC20338		33605		10477	
8	hiw (GeneID 32429)	DRSC20339		25105		7705	
9	CG15522 (GeneID 43546)	DRSC15059		8771		3207	
10	5-HT7 (GeneID 43669)	DRSC12635		1824	4547	896	1900
11	Usp12-46 (GeneID 42702)	DRSC16175		16893		13638	
12	zen (GeneID 40828)	DRSC12632		16776		3962	
13	CG13102 + Rcd-1r	DRSC03266		2733	7382	979	4144
14	CG30423 (GeneID 246605)	DRSC04013		17906		9515	
15	SkpA (GeneID 31016)	DRSC18833	Wg reporter activity raised (active)	11418	20736	708	1106
16	Z600 (GeneID 39673)	DRSC11317		5600		2384	
17	CG15143 (GeneID 35062)	DRSC02444		2779	5653	1016	2953
18	CG13054 (GeneID 39780)	DRSC09935		5712		3584	
19	Mdh1 (GeneID 34414)	DRSC02846		3284	6009	1590	3173
20	CG6621 (GeneID 41319)	DRSC16076		4636		2098	
21	CG15725 (GeneID 32224)	DRSC19691		17271		8118	
22	Jon25Bii (GeneID 33707)	DRSC03114		3972	9809	1280	2667
23	nan (GeneID 39571)	DRSC10551		4503		2428	
24	Sems (GeneID 40315)	DRSC11626		20066		7763	
25	CG8010 (GeneID 32921)	DRSC20072		2829	9097	964	3420
26	SPARC (GeneID 43230)	DRSC14123		9428		2406	
27	eIF3c (GeneID 37005)	DRSC06905		3058		1376	
28	fend (GeneID 31843)	DRSC17601		5579		1575	
29	fend (GeneID 31843)	DRSC17867		19190		16393	
30	mthl5 (GeneID 41438)	DRSC16155		14744		3594	
31	CG30349 (GeneID 35885)	DRSC06421		2845	5504	676	2662
32	CG30349 (GeneID 35885)	DRSC06839		1770	7360	459	2561
33	CR32511 (GeneID 12798210)	DRSC20697		4065		1638	
34	CG30414 (GeneID 37705)	DRSC04372		2859	7591	660	3330
35	CysRS (GeneID 36784)	DRSC05948		10545		2757	
36	Best3 (GeneID 39661)	DRSC09880		3974		2813	
37	CG4598 (GeneID 34315)	DRSC02763		2656	3778	756	1933
38	CG12769 (GeneID 35770)	DRSC06167		19872		6004	
39	CG33177 (GeneID 32438)	DRSC19949		27355		10155	
40	wfs1 (GeneID 42679)	DRSC15676		13208		12155	
41	Atg12 (GeneID 39383)	DRSC09803		9412		3923	
42	CG3225 (GeneID 33680)	DRSC00578		11458		3864	
43	CG11843 (GeneID 43432)	DRSC14401		8170		2576	
44	Ssu72 (GeneID 32973)	DRSC19572		18933		11885	
45	AstA (GeneID 42947)	DRSC14634		27483		20197	
46	PMCA (GeneID 43787)	DRSC17113		1868		1397	
47	PMCA (GeneID 43787)	DRSC17114		3744		1440	
48	PMCA (GeneID 43787)	DRSC17154		2524	4636	969	1890
49	RNaseX25 (GeneID 38885)	DRSC11259		3716		2041	

Ordered by “Renilla control light, replicate 1” (lowest first): some entries from above.
target	DRSC id	reporter change call, replicate 1	firefly reporter light, replicate 1	firefly reporter light, replicate 2	Renilla control light, replicate 1	Renilla control light, replicate 2
CG15143 (GeneID 35062)	DRSC02444		2779	5653	1016	2953
Jon25Bii (GeneID 33707)	DRSC03114		3972	9809	1280	2667
Mdh1 (GeneID 34414)	DRSC02846		3284	6009	1590	3173
CG6621 (GeneID 41319)	DRSC16076		4636		2098	
nan (GeneID 39571)	DRSC10551		4503		2428	
CG13054 (GeneID 39780)	DRSC09935		5712		3584	
Sems (GeneID 40315)	DRSC11626		20066		7763	
CG15725 (GeneID 32224)	DRSC19691		17271		8118	
